According to US11130793B2 (Zealand Pharma A/S, priority 2016, dated 2021):

Columns and labels:
[1] = general procedure: Fmoc solid-phase peptide synthesis; TentaGel S PHB Asp(tBu)Fmoc; settings: whole synthesis, scale 1.19 g; 0.23 mmol/g
[2] = general procedure: Fmoc solid-phase peptide synthesis; TentaGel (TentaGel S PHB Asp(tBu)Fmoc, 0.23 mmol/g); settings: whole synthesis, analytical HPLC and MS

In the case of “H-H[Aib]EGSFTSELATILDEQAARDFIAWLIYHKITD-OH”, the crude mass [1] is reported as 750 mg, the “crude purity (method not given)” value [2] is reported as “˜30%” and the “final HPLC purity” value [2] is reported as 84%.

Square brackets hold non-standard residues; d marks the D form. Aib = CC(C)(N)C(=O)O
